In PMC10310764:
These are yes or no findings as the source states them, for the method shown. In cells and extracts the contact can be indirect. Some binding calls cover weakened binding; strength is not graded here.

Protein sequences, listed by entry. Tags and fused reporters are not part of them. Lines headed by an entry give the natural chain unless they say otherwise; changes in a name come on top.
UniProt Q05086: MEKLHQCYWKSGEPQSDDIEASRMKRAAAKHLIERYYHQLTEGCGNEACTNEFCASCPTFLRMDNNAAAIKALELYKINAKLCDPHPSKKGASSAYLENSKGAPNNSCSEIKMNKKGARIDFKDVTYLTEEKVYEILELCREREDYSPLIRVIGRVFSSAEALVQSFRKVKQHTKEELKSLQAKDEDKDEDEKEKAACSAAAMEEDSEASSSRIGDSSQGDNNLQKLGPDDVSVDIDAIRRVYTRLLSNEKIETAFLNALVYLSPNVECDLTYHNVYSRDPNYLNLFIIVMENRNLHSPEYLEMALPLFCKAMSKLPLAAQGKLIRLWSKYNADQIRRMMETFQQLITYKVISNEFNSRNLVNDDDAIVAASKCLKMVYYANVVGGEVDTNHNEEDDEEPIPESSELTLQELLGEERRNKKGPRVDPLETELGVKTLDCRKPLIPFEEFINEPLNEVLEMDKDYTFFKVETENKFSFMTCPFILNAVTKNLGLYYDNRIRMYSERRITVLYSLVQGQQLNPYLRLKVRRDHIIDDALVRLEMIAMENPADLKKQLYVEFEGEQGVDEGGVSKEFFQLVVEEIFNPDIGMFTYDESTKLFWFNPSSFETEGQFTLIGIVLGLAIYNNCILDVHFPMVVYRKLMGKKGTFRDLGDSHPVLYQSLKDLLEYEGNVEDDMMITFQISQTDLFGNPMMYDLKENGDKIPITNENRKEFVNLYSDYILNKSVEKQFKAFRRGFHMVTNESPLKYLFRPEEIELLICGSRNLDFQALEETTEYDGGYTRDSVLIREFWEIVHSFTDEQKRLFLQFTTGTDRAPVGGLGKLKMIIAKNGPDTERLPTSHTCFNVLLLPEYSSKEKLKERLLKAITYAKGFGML

T1: dual-specificity protein phosphatase 1 (human (endogenous in SK-MES-1 and NCI-H2170)) (UniProt P28562)
T1 sequence: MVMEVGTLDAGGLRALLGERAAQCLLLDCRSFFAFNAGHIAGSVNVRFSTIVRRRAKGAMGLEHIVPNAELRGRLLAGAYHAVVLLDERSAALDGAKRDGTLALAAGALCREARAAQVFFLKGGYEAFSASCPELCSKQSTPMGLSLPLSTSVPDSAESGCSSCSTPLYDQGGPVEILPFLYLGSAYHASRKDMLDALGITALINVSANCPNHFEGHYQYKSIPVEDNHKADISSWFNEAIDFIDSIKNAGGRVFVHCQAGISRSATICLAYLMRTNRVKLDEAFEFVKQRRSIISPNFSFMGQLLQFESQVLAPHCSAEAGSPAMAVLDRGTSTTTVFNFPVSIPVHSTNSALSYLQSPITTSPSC


Experiments:
[1] = molecular target: T1, dual-specificity protein phosphatase 1 (human (endogenous in SK-MES-1 and NCI-H2170)); experiment: co-IP; endogenous proteins; SK-MES-1 and NCI-H2170 whole cell lysates in RIPA buffer with PMSF; anti-UBE3A, anti-DUSP1 or control IgG on Protein A/G agarose beads, 2 h at 4 °C; western blot
[2] = molecular target: T1, dual-specificity protein phosphatase 1 (human (endogenous in SK-MES-1 and NCI-H2170)); experiment: co-IP; endogenous proteins; cytosolic and nuclear protein fractions (Nuclear/Cytosol Fractionation Kit); both directions; western blot
[3] = molecular target: ubiquitin-protein ligase E3A (human (endogenous in SK-MES-1 and NCI-H2170)) (UniProt Q05086); experiment: co-IP; endogenous proteins; SK-MES-1 and NCI-H2170 whole cell lysates in RIPA buffer with PMSF; anti-UBE3A, anti-DUSP1 or control IgG on Protein A/G agarose beads, 2 h at 4 °C; western blot
[4] = molecular target: ubiquitin-protein ligase E3A (human (endogenous in SK-MES-1 and NCI-H2170)) (UniProt Q05086); experiment: co-IP; endogenous proteins; cytosolic and nuclear protein fractions (Nuclear/Cytosol Fractionation Kit); both directions; western blot

Row | binding [1] | binding [2] | binding [3] | binding [4] | Molecule
1 | binds | binds | – | – | ubiquitin-protein ligase E3A (from UniProt Q05086 1-875)
2 | – | – | binds | binds | dual-specificity protein phosphatase 1 (protein, UniProt P28562 1-367) MVMEVGTLDAGGLRALLGERAAQCLLLDCRSFFAFNAGHIAGSVNVRFSTIVRRRAKGAMGLEHIVPNAELRGRLLAGAYHAVVLLDERSAALDGAKRDGTLALAAGALCREARAAQVFFLKGGYEAFSASCPELCSKQSTPMGLSLPLSTSVPDSAESGCSSCSTPLYDQGGPVEILPFLYLGSAYHASRKDMLDALGITALINVSANCPNHFEGHYQYKSIPVEDNHKADISSWFNEAIDFIDSIKNAGGRVFVHCQAGISRSATICLAYLMRTNRVKLDEAFEFVKQRRSIISPNFSFMGQLLQFESQVLAPHCSAEAGSPAMAVLDRGTSTTTVFNFPVSIPVHSTNSALSYLQSPITTSPSC
